Test system: extracellular matrix (BD Matrigel)
Assay: Assessment of the ECM-binding ability (ECL on BD Matrigel)
Conditions: fluorescence intensity relative to standard antibody MRAH-G1d/MRAL-k0

MRAH-G1d/MRAL-k0: standard antibody of the ECM-binding assessment [reference compound]
ECM binding ratio (standard = 1): 1

B1: antibody-18: optimized anti-human CD3ε chain and anti-human GPC3 bispecific antibody (antibody)
heavy 1: QVQLVESGGGLVQPGRSLRLSCAASGFTFSNAWMHWVRQAPGKGLEWVAQIKDKSQNYATYYAESVKGRFTISRADSKNSIYLQMNSLKTEDTAVYYCRYVHYSASYGVDAWGQGTTVTVSSASTKGPSVFPLAPCSRSTSESTAALGCLVKDYFPEPVTVSWNSGALTSGVHTFPAVLQSSGLYSLSSVVTVPSSSLGTKTYTCNVDHKPSNTKVDKRVESKYGPPCPPCPAPEFRGGPKVFLFPPKPKDTLMISRTPEVTCVVVDVSQEDPEVQFNWYVDGVEVHNAKTKPREEQFASTYRVVSVLTVLHQDWLNGKEYKCKVSNKGLPSSIEKTISKAKGQPREPQVYTLPPSQKEMTKNQVSLTCLVKGFYPSDIAVEWESNGQPENNYKTTPPVLDSDGSFFLYSKLTVDKSRWQEGNVFSCSVMHEALHNRYTQKSLSLSP
heavy 2: QVQLVQSGAEVKKPGASVKVSCKASGYTFTDYEMHWIRQPPGQGLEWIGAIDGKTPDTAYSQKFKGRVTLTADKSTSTAYMELSSLTSEDTAVYYCTRFYSYTYWGQGTLVTVSSASTKGPSVFPLAPCSRSTSESTAALGCLVKDYFPEPVTVSWNSGALTSGVHTFPAVLQSSGLYSLSSVVTVPSSSLGTQTYTCNVDHKPSNTKVDKRVESKYGPPCPPCPAPEFRGGPKVFLFPPKPKDTLMISRTPEVTCVVVDVSQEDPEVQFNWYVDGVEVHNAKTKPREEQFASTYRVVSVLTVLHQDWLNGKEYKCKVSNKGLPSSIEKTISKAKGQPREPQVYTLPPSQEEMTKNQVSLTCLVKGFYPSDIAVEWESNGQPENNYKTTPPVLDSDGSFFLYSKLTVDKSRWQEGNVFSCSVMHEALHNHYTQESLSLSP
light: DIVMTQSPLSLPVTPGEPASISCRSSQSPVHSNRNTYLHWYQQKPGQAPRLLIYKVSNRFWGVPDRFSGSGSGTDFTLKISRVEAEDVGVYYCYQGTQVPYTFGQGTKLEIKRTVAAPSVFIFPPSDEQLKSGTASVVCLLNNFYPREAKVQWKVDNALQSGNSQESVTEQDSKDSTYSLSSTLTLSKADYEKHKVYACEVTHQGLSSPVTKSFNRGEC
ECM binding ratio (standard = 1): 50.4

B2: antibody-19: optimized anti-human CD3ε chain and anti-human GPC3 bispecific antibody (antibody)
heavy 1: QVQLVESGGGLVQPGRSLRLSCAASGFTFSNAWMHWVRQAPGKGLEWVAQIKDKSQNYATYYAESVKGRFTISRADSKNSIYLQMNSLKTEDTAVYYCRYVHYSASYGVDAWGQGTTVTVSSASTKGPSVFPLAPCSRSTSESTAALGCLVKDYFPEPVTVSWNSGALTSGVHTFPAVLQSSGLYSLSSVVTVPSSSLGTKTYTCNVDHKPSNTKVDKRVESKYGPPCPPCPAPEFRGGPKVFLFPPKPKDTLMISRTPEVTCVVVDVSQEDPEVQFNWYVDGVEVHNAKTKPREEQFASTYRVVSVLTVLHQDWLNGKEYKCKVSNKGLPSSIEKTISKAKGQPREPQVYTLPPSQKEMTKNQVSLTCLVKGFYPSDIAVEWESNGQPENNYKTTPPVLDSDGSFFLYSKLTVDKSRWQEGNVFSCSVMHEALHNRYTQKSLSLSP
heavy 2: QVQLVQSGAEVKKPGASVKVSCKASGYTFTDYEMHWIRQPPGQGLEWIGAIDGKTPDTAYSQKFKGRVTLTADKSTSTAYMELSSLTSEDTAVYYCTRFYSYTYWGQGTLVTVSSASTKGPSVFPLAPCSRSTSESTAALGCLVKDYFPEPVTVSWNSGALTSGVHTFPAVLQSSGLYSLSSVVTVPSSSLGTQTYTCNVDHKPSNTKVDKRVESKYGPPCPPCPAPEFRGGPKVFLFPPKPKDTLMISRTPEVTCVVVDVSQEDPEVQFNWYVDGVEVHNAKTKPREEQFASTYRVVSVLTVLHQDWLNGKEYKCKVSNKGLPSSIEKTISKAKGQPREPQVYTLPPSQEEMTKNQVSLTCLVKGFYPSDIAVEWESNGQPENNYKTTPPVLDSDGSFFLYSKLTVDKSRWQEGNVFSCSVMHEALHNHYTQESLSLSP
light: DIVMTQSPLSLPVTPGEPASISCRSSQSPVHSNRNTYIHWYQQKPGQAPRLLIYKVSNRFSGVPDRFSGSGSGTDFTLKISRVEAEDVGVYYCYQGTQVPYTFGQGTKLEIKRTVAAPSVFIFPPSDEQLKSGTASVVCLLNNFYPREAKVQWKVDNALQSGNSQESVTEQDSKDSTYSLSSTLTLSKADYEKHKVYACEVTHQGLSSPVTKSFNRGEC
ECM binding ratio (standard = 1): 7.4

B3: antibody-6: anti-human CD3ε chain and anti-human GPC3 bispecific antibody (antibody)
heavy: QVQLVESGGGVVQPGRSLRLSCAASGFTFSNAWMHWVRQAPGKGLEWVANIKAKSNNYATYYAESVKGRFTISRDDSKNSLYLQMNSLKTEDTAVYYCRYVHYGAYYGVDAWGQGTTVTVSSASTKGPSVFPLAPSSKSTSGGTAALGCLVKDYFPEPVTVSWNSGALTSGVHTFPAVLQSSGLYSLSSVVTVPSSSLGTQTYICNVNHKPSNTKVDKKVEPKSCDKTHTCPPCPAPEAAGGPSVFLFPPKPKDTLMISRTPEVTCVVVDVSHEDPEVKFNWYVDGVEVHNAKTKPREEQYASTYRVVSVLTVLHQDWLNGKEYKCKVSNKALPAPIEKTISKAKGQPREPQVYTLPPSRCELTKNQVSLSCAVKGFYPSDIAVEWESNGQPENNYKTTPPVLDSDGSFFLVSKLTVDKSRWQQGNVFSCSVMHEALHNHYTQKSLSLSPDYKDDDDK
light: DIVMTQSPLSLPVTPGEPASISCRSSQSLVHSNRNTYLHWYQQKPGQAPRLLIYKVSNRFSGVPDRFSGSGSGTDFTLKISRVEAEDVGVYYCGQGTQVPYTFGQGTKLEIKRTVAAPSVFIFPPSDEQLKSGTASVVCLLNNFYPREAKVQWKVDNALQSGNSQESVTEQDSKDSTYSLSSTLTLSKADYEKHKVYACEVTHQGLSSPVTKSFNRGEC
chain 1: DIVMTQSPLSLPVTPGEPASISCRSSQSLVHSNRNTYLHWYQQKPGQAPRLLIYKVSNRFSGVPDRFSGSGSGTDFTLKISRVEAEDVGVYYCSQNTHVPPTFGQGTKLEIKSSASTKGPSVFPLAPSSKSTSGGTAALGCLVKDYFPEPVTVSWNSGALTSGVHTFPAVLQSSGLYSLSSVVTVPSSSLGTQTYICNVNHKPSNTKVDKKVEPKSCDKTHTCPPCPAPEAAGGPSVFLFPPKPKDTLMISRTPEVTCVVVDVSHEDPEVKFNWYVDGVEVHNAKTKPREEQYASTYRVVSVLTVLHQDWLNGKEYKCKVSNKALPAPIEKTISKAKGQPREPQVCTLPPSRDELTKNQVSLWCLVKGFYPSDIAVEWESNGQPENNYKTTPPVLDSDGSFFLYSKLTVDKSRWQQGNVFSCSVMHEALHNHYTQKSLSLSPHHHHHHHH
chain 2: QVQLVQSGAEVKKPGASVKVSCKASGYTFTDYEMHWIRQPPGQGLEWIGAIDPKTGDTAYSQKFKGRVTLTADKSTSTAYMELSSLTSEDTAVYYCTRFYSYTYWGQGTLVTVSSASVAAPSVFIFPPSDEQLKSGTASVVCLLNNFYPREAKVQWKVDNALQSGNSQESVTEQDSKDSTYSLSSTLTLSKADYEKHKVYACEVTHQGLSSPVTKSFNRGEC
ECM binding ratio (standard = 1): 47.0

B4: antibody-20: optimized anti-human CD3ε chain and anti-human GPC3 bispecific antibody (antibody)
heavy 1: QVQLVESGGGLVQPGRSLRLSCAASGFTFSNAWMHWVRQAPGKGLEWVAQIKDKSQNYATYYAESVKGRFTISRADSKNSIYLQMNSLKTEDTAVYYCRYVHYSASYGVDAWGQGTTVTVSSASTKGPSVFPLAPCSRSTSESTAALGCLVKDYFPEPVTVSWNSGALTSGVHTFPAVLQSSGLYSLSSVVTVPSSSLGTKTYTCNVDHKPSNTKVDKRVESKYGPPCPPCPAPEFRGGPKVFLFPPKPKDTLMISRTPEVTCVVVDVSQEDPEVQFNWYVDGVEVHNAKTKPREEQFASTYRVVSVLTVLHQDWLNGKEYKCKVSNKGLPSSIEKTISKAKGQPREPQVYTLPPSQKEMTKNQVSLTCLVKGFYPSDIAVEWESNGQPENNYKTTPPVLDSDGSFFLYSKLTVDKSRWQEGNVFSCSVMHEALHNRYTQKSLSLSP
heavy 2: QVQLVQSGAEVKKPGASVKVSCKASGYTFTDYEMHWIRQPPGQGLEWIGAIDGKTPDTAYSQKFKGRVTLTADKSTSTAYMELSSLTSEDTAVYYCTRFYSYTYWGQGTLVTVSSASTKGPSVFPLAPCSRSTSESTAALGCLVKDYFPEPVTVSWNSGALTSGVHTFPAVLQSSGLYSLSSVVTVPSSSLGTQTYTCNVDHKPSNTKVDKRVESKYGPPCPPCPAPEFRGGPKVFLFPPKPKDTLMISRTPEVTCVVVDVSQEDPEVQFNWYVDGVEVHNAKTKPREEQFASTYRVVSVLTVLHQDWLNGKEYKCKVSNKGLPSSIEKTISKAKGQPREPQVYTLPPSQEEMTKNQVSLTCLVKGFYPSDIAVEWESNGQPENNYKTTPPVLDSDGSFFLYSKLTVDKSRWQEGNVFSCSVMHEALHNHYTQESLSLSP
light: DIVMTQSPLSLPVTPGEPASISCRSSQPPVHSNRNTYLHWYQQKPGQAPRLLIYKVSNRFSGVPDRFSGSGSGTDFTLKISRVEAEDVGVYYCYQGTQVPYTFGQGTKLEIKRTVAAPSVFIFPPSDEQLKSGTASVVCLLNNFYPREAKVQWKVDNALQSGNSQESVTEQDSKDSTYSLSSTLTLSKADYEKHKVYACEVTHQGLSSPVTKSFNRGEC
ECM binding ratio (standard = 1): 15.5

B5: antibody-17: optimized anti-human CD3ε chain and anti-human GPC3 bispecific antibody (antibody)
heavy 1: QVQLVESGGGLVQPGRSLRLSCAASGFTFSNAWMHWVRQAPGKGLEWVAQIKDKSQNYATYYAESVKGRFTISRADSKNSIYLQMNSLKTEDTAVYYCRYVHYSASYGVDAWGQGTTVTVSSASTKGPSVFPLAPCSRSTSESTAALGCLVKDYFPEPVTVSWNSGALTSGVHTFPAVLQSSGLYSLSSVVTVPSSSLGTKTYTCNVDHKPSNTKVDKRVESKYGPPCPPCPAPEFRGGPKVFLFPPKPKDTLMISRTPEVTCVVVDVSQEDPEVQFNWYVDGVEVHNAKTKPREEQFASTYRVVSVLTVLHQDWLNGKEYKCKVSNKGLPSSIEKTISKAKGQPREPQVYTLPPSQKEMTKNQVSLTCLVKGFYPSDIAVEWESNGQPENNYKTTPPVLDSDGSFFLYSKLTVDKSRWQEGNVFSCSVMHEALHNRYTQKSLSLSP
heavy 2: QVQLVQSGAEVKKPGASVKVSCKASGYTFTDYEMHWIRQPPGQGLEWIGAIDGKTPDTAYSQKFKGRVTLTADKSTSTAYMELSSLTSEDTAVYYCTRFYSYTYWGQGTLVTVSSASTKGPSVFPLAPCSRSTSESTAALGCLVKDYFPEPVTVSWNSGALTSGVHTFPAVLQSSGLYSLSSVVTVPSSSLGTQTYTCNVDHKPSNTKVDKRVESKYGPPCPPCPAPEFRGGPKVFLFPPKPKDTLMISRTPEVTCVVVDVSQEDPEVQFNWYVDGVEVHNAKTKPREEQFASTYRVVSVLTVLHQDWLNGKEYKCKVSNKGLPSSIEKTISKAKGQPREPQVYTLPPSQEEMTKNQVSLTCLVKGFYPSDIAVEWESNGQPENNYKTTPPVLDSDGSFFLYSKLTVDKSRWQEGNVFSCSVMHEALHNHYTQESLSLSP
light: DIVMTQSPLSLPVTPGEPASISCRSSQSPVHSNRNTYLHWYQQKPGQAPRLLIYKVSNRFSGVPDRFSGSGSGTDFTLKISRVEAEDVGVYYCYQGTQVPYTFGQGTKLEIKRTVAAPSVFIFPPSDEQLKSGTASVVCLLNNFYPREAKVQWKVDNALQSGNSQESVTEQDSKDSTYSLSSTLTLSKADYEKHKVYACEVTHQGLSSPVTKSFNRGEC
ECM binding ratio (standard = 1): 15.4
